# Assay results: PMC4704060
# Biological target: T1, BmDsp (His-Dsp) (UniProt H9IV52)
# T1 sequence (looked up): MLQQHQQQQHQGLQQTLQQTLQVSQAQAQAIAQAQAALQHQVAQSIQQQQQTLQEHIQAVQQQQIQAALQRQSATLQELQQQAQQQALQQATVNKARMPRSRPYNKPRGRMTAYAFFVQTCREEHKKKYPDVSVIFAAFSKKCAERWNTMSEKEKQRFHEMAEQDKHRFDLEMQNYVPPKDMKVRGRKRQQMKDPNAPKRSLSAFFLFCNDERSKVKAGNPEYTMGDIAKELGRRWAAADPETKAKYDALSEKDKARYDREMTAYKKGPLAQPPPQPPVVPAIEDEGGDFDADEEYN
# Experiment: EMSA
# Details: LightShift Chemiluminescent EMSA kit (binding buffer, salt and temperature not stated); 0.8 ug protein, 1-6 pmol biotin probe, 2-100 pmol unlabeled probe; recombinant protein; residues 1-297; protein details: His (pET-28a(+)); label: 5' biotin
row,Sequence,binding result
1,GAAAAATTGTTTTACCTGGAACTATA (double strand) [BmDsp-BmAbd-B probe],binds
2,GATAAGGAAAGGAAAAGAGAG (double strand) [BmDsp-BmUbx probe],binds
3,GCGACGGAAAATACGGACGT (double strand) [BmDsp-BmAntp probe],binds

# Biological target: Bmsob (GST-sob) (UniProt A0A0U2IB10)
# Experiment: EMSA
# Details: LightShift Chemiluminescent EMSA kit (binding buffer, salt and temperature not stated); 0.8 ug protein, 1-6 pmol biotin probe, 2-100 pmol unlabeled probe; recombinant protein; residues 1-436; protein details: GST (pGEX-4T-1); label: 5' biotin
row,Sequence,binding result
1,GCCCTTGGGGCCGAAAATCTG (double strand) [Bmsob-BmAntp probe],binds
2,GCCTCGGCGCGCCCTGCGACG (double strand) [Bmsob-BmAbd-B probe],binds
3,CGCGCTCCCGCCACACGCGAC (double strand) [Bmsob-BmUbx probe],binds
4,AATATCCCTCGCCTAGTTACGCTGGC (double strand) [Bmsob-BmDsp probe],binds

# Construct, isoform or probe ends are uncertain for at least one entry. At least one verdict rests on a figure or table, not on a statement of the authors. For some of these results: Protein sequences can lack the tags named with them.
